Laboratory results: PubChem BioAssay AID1508588 (Peter MacCallum Cancer Centre, 2020)
The deposit covers about 18,000 reagents; this is an unselected part. In the full data, 790 (4.4%) got an active call. 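Calls rest on a combination of fold-change classes in drug and vehicle arms, not all shown here.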 Unmarked entries are inactive.

Test: 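Knock-downs boosting vemurafenib effects on melanoma cell growth or lactate release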 (primary screen)
Cells: human WM266.4 melanoma cells (BRAF V600 mutant)
Reagents: siRNA pool against human genes, 40 nM
Time to read-out: 96 h from transfection to read-out
Conditions: vemurafenib 300 nM (about IC25), added 48 h after transfection, for 48 h; comparison arm got DMSO vehicle only
Measurement: 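Cell gain (DAPI nuclei at end minus before drug, mean of two replicates) and medium lactate by absorbance per cell, both as ratio to non-targeting siRNA, also grouped into fold-change classes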
Direction: cell gain with vemurafenib: higher = more cell gain than with non-targeting siRNA; lactate per cell with vemurafenib: higher = more lactate made per cell
Hit rule: 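Enhancement is called by pairing each knock-down's vehicle-arm and drug-arm fold-change classes for viability or glycolysis; which class combinations qualify is not given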
Meaning of the calls: active = enhances vemurafenib effect; inactive = no enhancement seen

gene symbol,cell gain with vemurafenib,lactate per cell with vemurafenib
RBM3,0.54,0.95
NETO2,0.78,0.73
SLC37A4,0.38,1.42
HVCN1,0.48,0.96
VWC2L,0.49,2.34
FIGN,0.66,1.27
ARHGEF6,0.73,0.86
OPN1SW,0.01,2.84
LCE4A,0.39 (active),0.43
LENG9,0.64,1.06
CARMIL1,0.22,0.96
LAMA1,0.4,1.17
ATG7,0.47,1.4
PRSS58,1,0.76

A portion from the list above, for reference:
gene symbol,cell gain with vemurafenib,lactate per cell with vemurafenib
LCE4A,0.39 (active),0.43
LENG9,0.64,1.06
CARMIL1,0.22,0.96
LAMA1,0.4,1.17

Additional results:
gene symbol,cell gain with vemurafenib,lactate per cell with vemurafenib
RAB40AL,0.72,1.4
DAD1,0.48,0.9
BRD3,0.75,1.45
AREL1,0.57,1.21
KLHL11,0.95,0.73
TBX4,0.28,1.86
C8G,0.86,0.74
COQ8B,0.15,0.92
PSORS1C2,0.51,1.01
CSNK1G2,0.76,0.8
PTX3,0.26,0.85
ITGA10,0.71,0.95
FAM120C,0.57,1.26
SREK1IP1,0.63,0.94
STAT3,0.4,1.87
TUT7,0.71,0.5
LRP10,1.13,0.78
TRIM63,1.11,0.73
RAB10,0.42,0.96
PRICKLE3,1.03,0.94
